According to PubChem BioAssay AID1347423 (Functional Genomics Laboratory (NCATS/FGL), 2020):
Screen size: about 52,000 sequences; about 210 (0.4%) were called active.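 How the source made its calls: active means gene whose silencing raises cell survival under the drug, median off-target-corrected z-score across its silencing RNAs 2 or more; inactive means the rest.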 Some of the results follow.

Assay: Resistance to Poly (ADP-Ribose) Polymerase inhibitor: Gene Identification via Genome-wide siRNA Screen
Details: mouse BRCA2 R2336H ES cells, olaparib, CellTiter-Glo viability; hits give high values
Outline: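 Genome-wide siRNA screen (3 siRNAs/gene, 20 nM) in mouse ES cells carrying hypomorphic BRCA2 R2336H; olaparib 500 nM added 48 h post-transfection, CellTiter-Glo viability 72 h later. Normalized to plate-median negative control; MAD z-scores, gene median, seed-adjusted.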

Row | Sequence | z-score
1 | GCGCAGUAUCCACUUCAAUTT against Pcsk7 | inactive: 0.0409
2 | CCAGAAGUGAUGGUUCAGUTT against 2700094K13Rik | inactive: -1.2
3 | GGAAUGAUAUUCUUGUUUCTT against 4930429H24Rik | inactive: 1.25
4 | GGAUGCCUUGAAGAAAUUATT against Olfr1044 | inactive: 2.01
5 | GGAAGGACUGAGGUAUCAUTT against Gtf2f2 | inactive: -1.35
6 | GGACGCAUGGAUCAAAAAATT against 2210412D01Rik | inactive: 1.79
7 | GGAAGAGGUUGAGAUCCAATT against Pogk | inactive: 0.561
8 | GGUAUUUGUGAAGACGUGUTT against AI894139 | inactive: 1.51
9 | GGUGUUGUCAGAAGUUUAATT against 9330176C04Rik | inactive: 0.674
10 | GGUAUUUUGCUCAGUCCCGTT against Tcfap2b | inactive: 0.286
11 | GGAAUGGAACUUGUCUGGGTT against Gpr37 | inactive: -0.0885
12 | GGGACUGUGUGUAAAGGACTT against 2410001H17Rik | inactive: 0.113
13 | GGAACGAGAAAUGAUCCAGTT against Ap1g1 | inactive: 0.0766
14 | GCAGUGACCUGCCACUGAATT against Cd79b | inactive: -0.161
15 | CGUAAAUAUGCCCGUAGUUTT against Plunc | inactive: -1.14
16 | GCUCUAUACCUUACGGUCCTT against Llglh2 | inactive: 0.0343
17 | GGUCUUCAAAAUCAUCCCUTT against 9030624L02Rik | inactive: 1.52
18 | GCAUCCUGGCUUAUCCAUUTT against Hmgb1 | inactive: 2.28
19 | GGUAAAUGUGAAUGUAAGGTT against Ntn4 | inactive: 1.36
20 | GGGUCACUUGGAUUGUGGATT against 2310042M24Rik | inactive: 0.885
21 | GGUAAUAACCCUUAAUAAGTT against MGC90611 | inactive: -0.00645
22 | GGAUGAGAUAUUCAGCCAGTT against Rshl1 | inactive: 0.426
23 | CCAAAUGCAACAAAGGUAATT against Maob | inactive: 0.734
24 | GCUUCACUCUCUUCUUUGCTT against Olfr1463 | inactive: -1.05
25 | CCCUAGCCAUAUGGAAUAUTT against 9130230L23Rik | inactive: -1.36
26 | GGAGCAUUUAAGGUUUACUTT against 2700055A20Rik | inactive: -0.743

Row | Sequence | z-score
27 | GGAAUCUCCUAGAAAUAUUTT against 4732496G21Rik | inactive: -0.94
28 | CCCUGAUUAAUGGUUCUAUTT against Sorl1 | inactive: -0.167
29 | GCCACGUACAUCCACUCUCTT against Pxmp4 | inactive: -0.114
30 | GGAGUAUUUAUCAACGGCATT against Pax3 | inactive: 0.654
31 | GGAGUCCUGGUGCAAACUCTT against Cnil | inactive: 1.38
32 | GGAUAGGAAGAAAAUGAAGTT against Slfn2 | inactive: -0.146
33 | GGACUAUUACACAUUAGUGTT against Rbp3 | inactive: 1.99
34 | GGCUAAGUUUUUAAAGAACTT against Ncald | inactive: -0.124
35 | GGACAAAAGACACAUGUUGTT against D4Wsu114e | inactive: 0.582
36 | GGCCAUCCCACAGAUUUACTT against 5033405K12Rik | inactive: 0.951
37 | GGUGGUUUGUGAUUGGCUUTT against Catnbip1 | inactive: 0.863
38 | GGUGGUUGUGCAAUAUAGUTT against Sca1 | inactive: -1.38
39 | GGAGAUCCUCUUCAACAUGTT against BC024502 | inactive: 0.658
40 | GGCUGUCAUCAUGUUGGUUTT against Slc5a4a | inactive: -2.22
41 | GGUUCAGCUAAAGGAUUUATT against BC021875 | inactive: -0.72
42 | GGUGAGAAAGAUUGAGAUUTT against Pdgfb | inactive: 0.0316
43 | CCCUAUUCUUUUUGUCAUGTT against Olfr105 | inactive: -0.267
44 | GAAAUGUUUGACACAACCUTT against Raet1b | inactive: -0.107
45 | GCACCUGUAGUUUUAAGCGTT against Traf3 | inactive: 0.149
46 | CCCUACAUUCUGUAUAGCCTT against Olfr474 | inactive: 0.0524
47 | CCUCAUGGUGAUGAUAUCCTT against Taar6 | inactive: 0.298
48 | GGUCCUCUCAGACAUGAAGTT against 2900092E17Rik | inactive: -0.939
49 | GGGCAUCUCAGAUUUAGCUTT against Cct3 | inactive: -2.52
50 | GGACAACAAGGCUUGCUACTT against Plxna2 | inactive: 0.251
51 | CCAUCUCUUACUAUCCAUGTT against 2310016A09Rik | inactive: 1.16
52 | GGUAUGUAGGAAUUACAGUTT against AI606181 | inactive: 0.573

Row | Sequence | z-score
53 | GCAGUUACAGGAAAUCGAGTT against Cdr2 | inactive: 0.167
54 | GGGAUCAGUCUACACGUCGTT against Irx2 | inactive: -1.94
55 | GCCAUCUAGCUACUGACACTT against Tubb3 | inactive: 0.0913
56 | GGUUAAAAUUUGGAAUCUGTT against Gm83 | inactive: 0.697
57 | CCCUGAUCUUGUGAGAAUUTT against Gm606 | inactive: -0.784
58 | GUUUACCUAGUCUUUGAAUTT against 2610028H07Rik | inactive: 1.23
59 | GGCAUUUACUACUUCAUAGTT against 4921501M20Rik | inactive: -0.899
60 | GGCAAAAGCACUGAAGAGATT against Ar | inactive: -1.26
61 | CCCGAAACAUCAUCAAGUATT against 4832415H08Rik | inactive: 0.131
62 | GGUUCAUUUUAACUGUAGATT against Pira3 | inactive: -0.217
63 | GGAGAGCUCUGGAAGCUUUTT against Ppara | inactive: 0.333
64 | GGAUUCCGUGCAUUUGUGATT against Atad3a | inactive: -0.388
65 | CCACCUUGGUCUAAUUUCUTT against Slitrk4 | inactive: -1.52
66 | CCUGUUGAGUACUGUGCUGTT against Olfr987 | inactive: -0.621
67 | GCCAGAUAGACAAUGAAGUTT against Gm672 | inactive: 0.277
68 | GGAAUCACGUUCCAAACAUTT against V1ra1 | inactive: 0.063
69 | CGUGGACUUAAUAUUUCAGTT against Btbd7 | inactive: 0.564
70 | GGCCAAAGAGGAGGAAAACTT against D5Bwg0834e | inactive: -0.569
71 | GCUCAAUUCUGCAAGACAUTT against Olfr543 | inactive: 0.0596
72 | UGCAAAGAUUGUCUCCUCCTT against Olfr255 | inactive: -0.653
73 | GGACACAGCAAGAAGAUACTT against Wfdc12 | inactive: -0.22
74 | GGAAGACUUUAUGUGCACCTT against Tbx4 | inactive: -0.123
75 | GGCCCUGGUAGCUUAUUACTT against Rps16 | inactive: -3.04
76 | CGUAGUCAUUACUCUAAUATT against Capns1 | inactive: 0.436
77 | GGCUAUUUCGAUGCUCUGGTT against Baiap2 | inactive: 0.914
78 | GGCUAUCACAGGGAUCCUATT against Ppl | inactive: -0.0942

Part of the list above, as a markdown table.

| Row | Sequence | z-score |
| --- | --- | --- |
| 53 | GCAGUUACAGGAAAUCGAGTT against Cdr2 | inactive: 0.167 |
| 56 | GGUUAAAAUUUGGAAUCUGTT against Gm83 | inactive: 0.697 |
| 66 | CCUGUUGAGUACUGUGCUGTT against Olfr987 | inactive: -0.621 |
| 72 | UGCAAAGAUUGUCUCCUCCTT against Olfr255 | inactive: -0.653 |
| 78 | GGCUAUCACAGGGAUCCUATT against Ppl | inactive: -0.0942 |

Additional entries:

Row | Sequence | z-score
79 | GGCUUUACACUGCUAGCUCTT against Fbxl2 | inactive: -0.0882
80 | CGAUCAUAUACAGACACAUTT against Ms4a4d | inactive: -0.948
81 | GGGCAUCUCUCCUGAAUACTT against Mbip | inactive: -0.419
82 | GGAAACAUCGCCUCAAACATT against Gjb4 | inactive: 0.672
83 | GGCCAAGAUAGAUAAUAACTT against 4930572I07Rik | inactive: 0.987
84 | GGUCACGAACAUUUUUGCUTT against 2010200O16Rik | inactive: -0.301
85 | CCACCGGGAGAACAAUCAATT against Eif2c2 | inactive: 0.428
86 | GCUGUAUCCAGCUUUUCGGTT against Tcfe2a | inactive: -0.853
87 | GGGCCUGUGGAAUUUGUUCTT against 5730439E10Rik | inactive: -0.0695
88 | GGCGGUGUUUUACUACAAGTT against Capn7 | inactive: -0.547
89 | GGACAUGAUUUUAUGCUUCTT against Zfp496 | inactive: -0.0651
90 | GAGCAUCGACAACCUCUCUTT against Hba-x | inactive: -1.21
91 | GGCCACAAUGGAUCAGAUGTT against Colm | inactive: -1.55
92 | GCGAACACUACUAUCGUUATT against Ipo11 | inactive: 0.849
93 | CCGGGUCAUUAUCUAUCAATT against 2410104I19Rik | inactive: -0.455
94 | GCGGGUUUAUUGUCUAGAATT against Mfn2 | inactive: -1.05
95 | CCAUUUGGCUCACAGUACGTT against AL033326 | inactive: -1.44
96 | GGUGUCCCUUAAUGUGUCCTT against 9530025L16Rik | inactive: 1.02
97 | GGCCCAAUAGACAUAUAGCTT against Trim21 | inactive: -0.0297
98 | GGAGUGCUUAAAAUUCAAGTT against Bcap29 | inactive: 1.41
99 | GGAGUAUUGGAAGUUACAATT against Ccnc | inactive: 0.837
100 | GGUAUCUCCAGUCCAGAGUTT against Mrpl34 | inactive: 0.31
101 | GGGAGUUAGAUCUGUAUAATT against 1700011F14Rik | inactive: -0.515
102 | GGAAAGAGAUGAUUGAAAUTT against Cts3 | inactive: 0.359
103 | GCCAACCAGGAUUUUACAATT against Fga | inactive: -0.313

Two entries from above in another layout.
Row,Sequence,z-score
68,GGAAUCACGUUCCAAACAUTT against V1ra1,inactive: 0.063
77,GGCUAUUUCGAUGCUCUGGTT against Baiap2,inactive: 0.914
